In the supplement of paper PMC10689618:
Counter-ions that a name gives are not always drawn. This is one part of the list. Many values rest on one well or one pass, so single values are uncertain.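 Labelled rat cortical synaptosomes were engulfed by primary human fetal astrocytes. Engulfment equaled a red/green ratio, corrected for calcein live-cell signal and normalized to the plate median. Compounds were toxic when calcein dropped over 30%, and reduced phagocytosis when below 70% of the median above 5 µM.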

Tests used:
Conditions in all cases: 24 h
Human fetal astrocytes [1] = test: loss of total cells relative to no-compound high-control median (toxicity); higher = more toxic (fewer cells)
Human fetal astrocytes [2] = test: synaptosome phagocytosis (pHrodo/calcein intensity ratio) relative to plate median of data wells; higher = more phagocytosis
Human fetal astrocytes [3] = test: loss of total cells relative to no-compound high-control median (toxicity); higher = more toxic (fewer cells); remark: listed apart in the source
Human fetal astrocytes [4] = test: synaptosome phagocytosis (pHrodo/calcein intensity ratio) relative to plate median of data wells; higher = more phagocytosis; remark: listed apart in the source

Row | Structure (SMILES) | loss of total cells (Human fetal astrocytes [1]; 1.39 µM) [%] | loss of total cells (Human fetal astrocytes [1]; 2.78 µM) [%] | loss of total cells (Human fetal astrocytes [1]; 5.56 µM) [%] | loss of total cells (Human fetal astrocytes [1]; 11.11 µM) [%] | loss of total cells (Human fetal astrocytes [1]; 22.22 µM) [%] | synaptosome phagocytosis (Human fetal astrocytes [2]; 1.39 µM) [%] | synaptosome phagocytosis (Human fetal astrocytes [2]; 2.78 µM) [%] | synaptosome phagocytosis (Human fetal astrocytes [2]; 5.56 µM) [%] | synaptosome phagocytosis (Human fetal astrocytes [2]; 11.11 µM) [%] | synaptosome phagocytosis (Human fetal astrocytes [2]; 22.22 µM) [%] | loss of total cells (Human fetal astrocytes [3]; 1.39 µM) [%] | loss of total cells (Human fetal astrocytes [3]; 2.78 µM) [%] | loss of total cells (Human fetal astrocytes [3]; 5.56 µM) [%] | loss of total cells (Human fetal astrocytes [3]; 11.11 µM) [%] | loss of total cells (Human fetal astrocytes [3]; 22.22 µM) [%] | synaptosome phagocytosis (Human fetal astrocytes [4]; 1.39 µM) [%] | synaptosome phagocytosis (Human fetal astrocytes [4]; 2.78 µM) [%] | synaptosome phagocytosis (Human fetal astrocytes [4]; 5.56 µM) [%] | synaptosome phagocytosis (Human fetal astrocytes [4]; 11.11 µM) [%] | synaptosome phagocytosis (Human fetal astrocytes [4]; 22.22 µM) [%]
1 | CP(=O)(O)CCCN | -15.8 | -6.3 | -4.1 | -3.1 | 10.2 | 93.5 | 78.8 | 89.6 | 91.7 | 111 |  |  |  |  |  |  |  |  |  | 
2 | CN1CCc2cc(O)cc3c2[C@H]1Cc1ccc(O)c(O)c1-3 [R(-)-2,10,11-Trihydroxyaporphine hybrobromide] | -2.9 | -18.8 | 8.2 | -3.1 | 21.6 | 121 | 96.2 | 111 | 107 | 64.1 |  |  |  |  |  |  |  |  |  | 
3 | COc1ccccc1N1CCNCC1 [1-(2-Methoxyphenyl)piperazine hydrochloride] | -14 | -30.8 | -9.6 | 5.7 | 1.6 | 112 | 115 | 95 | 105 | 113 |  |  |  |  |  |  |  |  |  | 
4 | CO[C@H]1CC=C2CCN3CCC4=C(CC(=O)OC4)[C@]23C1 [Dihydro-beta-erythroidine hydrobromide] | -6.3 | -0.9 | 18.9 | -1.3 | -1.6 | 91 | 110 | 73.9 | 100 | 113 |  |  |  |  |  |  |  |  |  | 
5 | O=C1CCCN1CC#CCN1CCCC1 |  |  |  |  |  |  |  |  |  |  | -24.6 | 11.9 | 17.6 | 2.7 | 6.7 | 99.7 | 129 | 140 | 86.3 | 104
6 | OCc1cnc[nH]1 [4-Imidazolemethanol hydrochloride] | 6.3 | -11.1 | 6.6 | -7.6 | -4 | 141 | 127 | 142 | 114 | 108 |  |  |  |  |  |  |  |  |  | 
7 | O=C(CCCN1CCC2(CC1)C(=O)NCN2c1ccccc1)c1ccc(F)cc1 [Spiperone hydrochloride] | -18.3 | -27.8 | -11.8 | -18.8 | -54.3 | 75.1 | 77.4 | 75.9 | 80.2 | 103 |  |  |  |  |  |  |  |  |  | 
8 | O=C1CN=C(c2ccccc2Cl)c2cc([N+](=O)[O-])ccc2N1 |  |  |  |  |  |  |  |  |  |  | -21.4 | -2 | 26 | -13.5 | -16.7 | 92.5 | 106 | 136 | 83.4 | 98.4
9 | CC(N)Cc1c[nH]c2ccc(OCc3cccs3)cc12 (stereo not given) | -24.2 | -21.7 | -12.4 | 1.3 | 7.1 | 98 | 105 | 100 | 83.4 | 81.9 |  |  |  |  |  |  |  |  |  | 
10 | COc1cc(CC(C)N)c(OC)cc1I (racemic) [(±)-DOI hydrochloride] | -20.5 | -35 | 6.6 | 4 | 8.8 | 94.9 | 115 | 102 | 103 | 103 |  |  |  |  |  |  |  |  |  | 
11 | Cc1nc(-c2ccc(-c3ccc(C(=O)N4CCc5cc6c(cc54)C4(CCN(C)CC4)CO6)cc3)c(C)c2)no1 | -46.3 | -23.7 | -3.4 | -7.3 | 33.7 | 89.9 | 98.1 | 79.7 | 90.9 | 26.3 |  |  |  |  |  |  |  |  |  | 
12 | N[C@@H](Cn1ccc(=O)[nH]c1=O)C(=O)O [S(-)-Willardiine] | -0.9 | -14.7 | -3.9 | 1.1 | -34.6 | 90.3 | 106 | 94.1 | 82.3 | 134 |  |  |  |  |  |  |  |  |  | 
13 | Oc1cc2c(cc1O)[C@H]1c3ccccc3CN[C@@H]1CC2 (racemic) [Dihydrexidine hydrochloride] | -1.3 | 0.9 | -4.1 | 17.5 | 7.2 | 105 | 91 | 76.7 | 61.1 | 23.3 |  |  |  |  |  |  |  |  |  | 
14 | O=C[C@H](Cl)[C@@H](O)[C@H](O)[C@H](O)CO [2-Chloro-2-deoxy-D-glucose] | -13 | -20.5 | 9.9 | -20.2 | -2.4 | 116 | 83.8 | 104 | 126 | 122 |  |  |  |  |  |  |  |  |  | 
15 | C[C@H](Cc1ccc2c(c1)OC(C(=O)O)(C(=O)O)O2)NC[C@H](O)c1cccc(Cl)c1 | -29.4 | -14.4 | 6 | -15.7 | 3.4 | 118 | 103 | 104 | 102 | 96.8 |  |  |  |  |  |  |  |  |  | 
16 | C=CCN1CC[C@]23c4c5ccc(O)c4O[C@H]2/C(=N/N=C2\CC[C@@]4(O)[C@H]6Cc7ccc(O)c8c7[C@@]4(CCN6CC=C)[C@H]2O8)CC[C@@]3(O)[C@H]1C5 [Naloxonazine dihydrochloride] | -6.2 | 5.9 | 1.4 | 13.3 | 38.3 | 88.6 | 139 | 109 | 133 | 141 |  |  |  |  |  |  |  |  |  | 
17 | NCC(O)c1cc(O)c(O)cc1F (stereo not given) [6-Fluoronorepinephrine hydrochloride] | -8.1 | -14.1 | -37.3 | -18.4 | 12.4 | 125 | 103 | 115 | 93.7 | 104 |  |  |  |  |  |  |  |  |  | 
18 | CC(Cc1ccc(O)cc1)NCC(O)c1cc(O)cc(O)c1 (stereo not given) [Fenoterol hydrobromide] | -1.3 | -26.5 | 0.8 | 2.2 | 0 | 87 | 95.6 | 112 | 111 | 134 |  |  |  |  |  |  |  |  |  | 
19 | COC(=O)c1cc2c(cn1)[nH]c1ccccc12 [Methyl beta-carboline-3-carboxylate] | -11.3 | -9.4 | -12.3 | -23.8 | -12 | 106 | 104 | 112 | 108 | 87.4 |  |  |  |  |  |  |  |  |  | 

Taken from above.
Value of O=C1CN=C(c2ccccc2Cl)c2cc([N+](=O)[O-])ccc2N1 under synaptosome phagocytosis (Human fetal astrocytes [4]; 22.22 µM) [%]: 98.4
Value of C[C@H](Cc1ccc2c(c1)OC(C(=O)O)(C(=O)O)O2)NC[C@H](O)c1cccc(Cl)c1 under synaptosome phagocytosis (Human fetal astrocytes [2]; 11.11 µM) [%]: 102
